Results published in publication PMC11055322.
Results are given in words; binding and its absence hold for the method and conditions named. In cells and extracts the contact can be indirect. Here binding means that the protein was enriched with, or labelled near, the bait; the list need not be complete.

Chains of the proteins cited; added tags and fusions are not shown. Residues count along the entry.
UniProt O95299, residues 36-355: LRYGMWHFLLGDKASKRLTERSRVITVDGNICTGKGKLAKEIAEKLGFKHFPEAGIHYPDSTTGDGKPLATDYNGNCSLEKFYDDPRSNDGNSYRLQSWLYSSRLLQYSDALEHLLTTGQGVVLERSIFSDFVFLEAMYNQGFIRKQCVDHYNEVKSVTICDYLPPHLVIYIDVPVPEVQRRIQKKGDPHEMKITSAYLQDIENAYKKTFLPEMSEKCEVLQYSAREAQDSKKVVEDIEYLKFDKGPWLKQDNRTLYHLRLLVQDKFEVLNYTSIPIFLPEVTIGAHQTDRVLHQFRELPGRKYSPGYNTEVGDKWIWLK

Biological target: T1, caveolin 3 (CAV3) (human (endogenous in AC16)) (UniProt P56539)
T1 sequence: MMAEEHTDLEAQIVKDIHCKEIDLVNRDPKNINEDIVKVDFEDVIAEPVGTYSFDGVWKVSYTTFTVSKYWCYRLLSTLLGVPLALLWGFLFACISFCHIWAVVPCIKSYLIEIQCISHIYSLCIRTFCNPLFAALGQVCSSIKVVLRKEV
Test: affinity purification with mass spectrometry; IP with anti-CAV3 antibody and protein A/G agarose beads; Coomassie staining; beads with protein-antibody complexes sent for LC-MS/MS

binding: binds
Substance: NDUFA10, a subunit of mitochondrial complex I (from UniProt O95299 36-355)
